In publication PMC8138767, “Intrinsically disordered substrates dictate SPOP subnuclear localization and ubiquitination activity” (The Journal of Biological Chemistry, 2021) one finds binding data, which are given here for three molecules.

Results are given in words; binding and its absence hold for the method and conditions named. Some binding calls cover weakened binding; strength is not graded here.

Experiment [1] has as its target SPOP-MATH (human SPOP residues 28-166) (human) (UniProt O43791). In words: NMR titration; Pdx1 peptides added 4:1 to 0.1-0.2 mM 15N-SPOP-MATH, alone or both together; 1H,15N HSQC; 50 mM sodium phosphate pH 6.5, 50 mM NaCl, 5 mM DTT; both purified.
Experiment [2] shares this target. In words: NMR titration; Pdx1 peptides added to 0.1-0.2 mM ^15N–SPOP–MATH at 4:1 peptide:SPOP; ^1H, ^15N HSQC; 50 mM sodium phosphate pH 6.5, 50 mM NaCl, 5 mM DTT; both purified.

On to LSASPQPSSVAPRRPQEPR (N-terminal acetyl (Ac-)) [Pdx1-SBM2 peptide (human Pdx1 residues 265-283)], for which the binding result in experiment [1] is reported as “binds”.

Consider GVAEPEQDCAVTSGEELLALPP (N-terminal acetyl (Ac-)) [Pdx1-SBM1 peptide (used for NMR)], for which, in experiment [1], the binding entry is listed as “binds”.

In the case of GVAEPEQDCAVTSGEELLALPP (N-terminal acetyl (Ac-)) [Pdx1–SBM1 peptide], the binding entry in experiment [2] was “binds”.
